PubChem BioAssay AID602254 (Broad Institute, 2012)
Fewer than 10 of roughly 1,000 compounds were called active.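 How the source made its calls: active means fitted half-maximal concentration no higher than twice the top valid tested dose, with signal falling; inconclusive means flat curve with 30 to 70% inhibition, or poor fit; inactive means the rest.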 The list shows a part of the results. Potency and affinity values are given separately. Residues, ends and D or L forms follow the SMILES beside them. *: point of attachment. Cbz = O=C(OCc1ccccc1)*

molecular target: Golgi-associated PDZ and coiled-coil motif-containing protein (Homo sapiens) (UniProt Q9HD26); assay: CAL PDZ domain peptide-binding inhibitors, dose response, biochemical, fluorescence polarization, untagged CAL PDZ, cherry-pick, set 2 (AID 602254); conditions: Purified CAL PDZ, TMR peptide fluorescence polarization; at 60 µM (top of the series);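 further: 0% = DMSO neutral control and -100% = unlabeled peptide PRC23 positive control; more negative means stronger blocking of peptide binding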

Activity change, negative = inhibition, inactive:
COc1ccc(OC)c(S(=O)(=O)Nc2c(C)n(C)n(-c3ccccc3)c2=O)c1 2.4%
CC(=O)N1CCc2cc(S(=O)(=O)NCC(=O)NCc3ccccc3Cl)ccc21 -2.99%
C/C(CC(=O)Nc1ccc2c(c1)OCCO2)=N\NC(=O)COc1ccc(Cl)c(C)c1 1.27%
CCN(CC)C(=O)COc1ccc(N(C)S(=O)(=O)c2ccc(NC(C)=O)cc2)cc1 0.142%
Cc1ccnc(NC(=O)c2sc3cc(Cl)ccc3c2Cl)c1 -5.33%
CCOC(=O)CN1C(=O)c2ccccc2C1=O 1.53%
Cc1ccccc1N1CCN(C(=O)C2CCC(=O)N(C3CCCC3)C2)CC1 (stereo not given) -1.33%
Cc1cc(F)c(F)cc1C(=O)N1CCCC1 0.296%
Cc1ccc(OCC(=O)Nc2c(C)ccc3nsnc23)cc1 -4.34%
CCc1cc(-c2n[nH]c(=S)n2CC(C)C)cs1 -4.49%
CCn1cc(C(=O)NC2CCCCCC2)c2cc(OC)c(OC)cc2c1=O 7.5%
Cc1noc(C)c1C(=O)OCC(=O)NCCc1ccccc1 -10.1%
Cc1cc(S(=O)(=O)NCCc2ccccc2)ccc1-n1cnnn1 0.393%
CC(=O)c1ccc(NC(=S)N(CCCN(C)C)Cc2ccccc2)cc1 -1.75%
Cc1ccc(-n2ncc(Cl)c2C(=O)NC2CC2)cc1 3.86%
Cc1ccc(NC(=O)CN2C(=O)S/C(=C\c3ccccn3)C2=O)cc1 2.99%
O=C(Nc1ccnn1C1CCN(C2CCC2)CC1)c1ccccc1 -3.97%
COc1ccc(NC(=O)CC(CC(=O)O)c2cc(OC)c(OC)c(OC)c2)cc1 (stereo not given) 1.78%
COc1ccc(S(=O)(=O)N2CCCCCC2)cc1C(=O)OC(C)C(N)=O (stereo not given) 0.34%
C=CCNC(=S)N/N=C/c1ccc(OCc2ccccc2)cc1 -0.594%
CC(C)C1C(C#N)=C(N)Oc2n[nH]c(-c3cccs3)c21 (stereo not given) 15.6%
COC(=O)c1sc(-c2ccc(Cl)cc2)cc1NC(=O)COCC(=O)O 9.78%
Cc1cc(Cl)cc(C)c1OCC(=O)NC1CCCCCC1 10.5%
CC(C)CN1C(=O)c2ccc(NC(=O)Cc3ccccc3)cc2C1=O -2.46%
O=C(Nc1ccccc1)c1ccc2snnc2c1 0.794%
CC(C)[C@H](NC(=O)OC(C)(C)C)C(=O)N/N=C/c1ccc2nccnc2c1 -0.4%
CCC/C(=N\NC(=O)CNC(=O)c1ccc(Cl)cc1)c1ccccc1 -1.07%
CC(C)(C)C(=O)O/N=C(\N)Cc1ccc(-c2csnn2)cc1 -1.04%
COc1cccc(CN(C)C(=O)CN2C(=O)NC(c3ccccc3)(c3ccccc3)C2=O)c1 0.401%
CCSc1nnc(NC(=O)CCNC(=O)c2ccccc2Cl)s1 -1.72%
Cc1ccc(NC(=O)COc2ccccc2C(=O)NCCc2ccccc2)cc1 1.91%
O=C(CC(c1ccccc1)c1ccccc1)Nc1ccncc1 4.51%
CSc1cc(CS(=O)(=O)c2ccccc2)nc(-c2ccccc2)n1 -0.628%
CCN(CC)CCCNC(=O)c1cn(CC(C)C)c(=O)c2c1c1ccccc1n2C 0.819%
O=C(COc1ccc(F)cc1Br)N1CCN(S(=O)(=O)/C=C/c2ccccc2)CC1 -0.593%
Cc1nc(C)c(CC(=O)N/N=C/c2ccc(O)cc2)c(=O)[nH]1 -1.37%
COc1ccc2[nH]c(O)c(N=NC(=O)c3ccc(NS(=O)(=O)c4cccs4)cc3)c2c1 0.434%
COc1ccc(CC(=O)Nc2ccc(S(=O)(=O)Nc3cc(C)on3)cc2)cc1 2.22%
COc1cccc(/C=N/Nc2ccccc2C(=O)O)c1O -3.32%
COc1ccccc1NC(=O)C1CCN(C(=O)NCc2ccccc2)CC1 0.179%
COc1ccccc1C(=O)NNC(=O)c1ccc(NC(=O)C(C)C)cc1 -0.743%
OC(c1ccccc1)C(NCCNCc1ccccc1)c1ccccc1 (stereo not given) -1.33%
COc1ccc(CCNS(=O)(=O)c2ccc(-n3cnnn3)cc2)cc1OC 5.56%
COC(=O)c1c(NC(=O)CN(C)CC(=O)Nc2ccc(C)cc2)sc2c1CCC(C)C2 (stereo not given) 0.538%
O=C1CCCCCC1C1(O)C(=O)Nc2ccc(Br)cc21 (stereo not given) 2.8%
COC(=O)c1ccccc1NC(=O)c1ccc(NC(=O)C2CCCO2)cc1 (stereo not given) 2.93%
COCC(=O)N1CCC(Oc2ccc(C(=O)NCc3cnc(C)cn3)cc2)CC1 -0.601%
Cc1ccccc1-n1nc2c(c1NC(=O)c1cc3ccccc3oc1=O)CS(=O)C2 (stereo not given) 5.68%
CCC(C)C(NC(=O)C(C)NC(=O)CNC(=O)CNC(=O)OCc1ccccc1)C(=O)OC (stereo not given) (Cbz-GGAI-OMe; configuration not given here) -0.582%
O=C(OCC(=O)N1CCOCC1)c1ccc(O)cc1 3.76%
O=C(c1ccc(S(=O)(=O)NCC2CCCO2)cc1)N1CCN(c2ccccc2)CC1 (stereo not given) 0.625%
Cc1ccc(C)c(-n2cc(CNCCc3cnccn3)c(-c3ccccc3)n2)c1 -0.978%
CC1CCN(C(=O)COc2ncnc3ccccc23)CC1 -1.92%
COCCCNS(=O)(=O)c1ccc2c(c1)CCN2C(C)=O -3.66%
Cc1ccc(S(=O)(=O)N2CCCCC2)cc1NC(=O)COC(=O)C1(C)CC1(Cl)Cl (stereo not given) -0.101%
COc1cccc(/C=C2\SC(=S)N(CCCC(=O)N3CCCCC3CCO)C2=O)c1 (stereo not given) 1.87%
Cc1nc(Nc2ccc(C(=O)O)cc2)sc1-c1ccccc1 -4.64%
Cc1ccc(CNS(=O)(=O)c2ccc(C(F)(F)F)cc2)n1C -2.84%
CN(c1ccccc1)S(=O)(=O)c1cccc(C(=O)NCCc2c[nH]c3ccccc23)c1 -5.59%
CCN(CC)c1ccc(NS(=O)(=O)c2ccc(OC)cc2)cc1 -2.25%
Cc1ccc(N2CCN(CCCN3C(=O)C4CCCN4C3=O)CC2)cc1 (stereo not given) 3.42%
Cc1cccc(OCC(=O)N2CCCc3ccccc32)c1 0.078%
COC(=O)c1ccc(CN2C(=O)c3ccccc3S2(=O)=O)cc1 -0.049%
O=S(=O)(c1cc(C(F)(F)F)ccc1Cl)N1CCN(c2ncnc3ccccc23)CC1 0.682%
O=C(CN1CCC(n2nnc3cc(C(F)(F)F)ccc32)CC1)Nc1ccc2c(c1)OCCO2 -1.87%
CCc1ccc(NC(=O)c2ccc(NC(=O)C3CCCO3)cc2)cc1 (stereo not given) -0.654%
Cc1ccccc1Nc1nc(N)nc(CN2C(=O)NC3(CCCCC3C)C2=O)n1 (stereo not given) -1.03%
COC(=O)c1cc(S(=O)(=O)N2CCCC(C)C2)c[nH]1 (stereo not given) 1.02%
COc1ccc(C2N(c3cc(C)on3)C(=O)C3CCCN32)cc1OC (stereo not given) -3.68%
COc1ccccc1C(=O)NCCC(=O)NCC1CCCCC1 -0.027%
O=C(NC(=S)Nc1ccc(S(=O)(=O)Nc2nccs2)cc1)c1ccc(F)cc1 1.35%
O=C(c1cccc(Cl)c1)N1CCC(C(=O)N2CCN(Cc3ccccc3)CC2)CC1 -2.79%
CCCCC(NS(=O)(=O)c1ccc(OC)cc1)C(=O)O (stereo not given) -1.29%
CCOC(=O)C1CCN(c2nc(-c3ccc(C)cc3)nc3ccccc23)CC1 -0.524%
CC(=O)Nc1ccc(NC(=O)COC(=O)COc2ccc3ccccc3c2)cc1 -1.38%
CCC(C)[C@H](NC(=O)N1CCC(C)CC1)C(=O)OC (stereo not given in full) -0.798%
Cc1ccc2nc(NC(=O)COC(=O)c3ccncc3)sc2c1 2.09%
Cc1noc(C)c1COc1ccc(CC(=O)NCCc2ccccc2)cc1 0.712%
C=CCOc1ccc(Br)cc1CNCCO -0.281%
C=CCc1ccc(OCCn2nnc3ccccc32)c(OC)c1 -0.216%
CC(C)CNC(=O)NC(=O)COC(=O)COc1ccc(Cl)cc1Cl 1.9%
Cn1c(CCN2CCCCCC2)nc2cc(NC(=O)Nc3ccccc3)ccc21 0.978%
COc1ccc(S(=O)(=O)N2CCC(C(=O)N[C@H](C(=O)N3CCCC3)C(C)C)CC2)cc1 1.52%
CN(C)c1ccc(C(=S)N2CCN(c3ccccc3)CC2)cc1 4.38%
O=C(NCc1ccc2c(c1)OCO2)c1ccc(Cl)nc1 -1.21%
CCc1noc(C)c1C(=O)N1CCCC(CCC(=O)NCc2ccc(F)c(F)c2)C1 (stereo not given) 3.47%
Cc1ccc(S(=O)(=O)NCC(=O)NCC(=O)N(C)Cc2ccc3ccccc3c2)cc1C -1.24%
COc1ccc(OCC(=O)Nc2ccccc2C(=O)N2CCOCC2)cc1 -1.76%
COc1ccc(OCCC(=O)OCC(=O)NCc2ccc(F)cc2)cc1 -0.608%
CCN(CC(=O)NCc1cccs1)C(=O)c1cc(=O)[nH]c2ccccc12 -2.51%
CC(C)=C1C(=O)NN(c2cccc(Cl)c2)C1=O 0.379%
CCN(C(=O)CCc1ccccc1)C1CCCCC1 -0.852%
O=C(Nc1ccc(F)cc1)C1CCCN1S(=O)(=O)c1cccc2nsnc12 (stereo not given) 1.12%
O=S(=O)(c1ccccc1)n1ccc2ccccc21 1.85%
COc1ccccc1NC(=S)N(Cc1ccc(C(=O)O)cc1)Cc1ccc(OC)c(OC)c1 1.02%
O=C(CNC(=O)c1ccccc1F)c1ccc(Br)cc1 -1.22%
CNC(=O)Cn1nc(C)c(S(=O)(=O)N2CCOCC2)c1C 0.191%
COc1ccc(OC)c(NC(=O)c2ccc(OC3CSC3)cc2)c1 1.19%
CC(C)(C)NC(=O)C1CC1(c1ccccc1)c1ccccc1 (stereo not given) -1.38%
O=C(COC(=O)c1ccc2ncsc2c1)NCc1ccc(F)cc1 -0.556%
COc1ccccc1OCC(=O)N1CCCC(Nc2ccc(F)c(F)c2)C1 (stereo not given) -2.78%
COc1ccc(NS(=O)(=O)c2cc(NC(=O)c3cnccn3)ccc2OC)cc1Br 8.71%
CCc1nnc(NC(=O)c2cc(C)nc3ccccc23)s1 -9.44%
CC(C)c1ccc(S(=O)(=O)N2CCN(C(=O)c3cccc(F)c3)CC2)cc1 4.73%
Cc1cc2oc(C(=O)Nc3ccc(S(=O)(=O)Nc4ncccn4)cc3)cc(=O)c2cc1Cl 2.6%

Fetched by compound from the list above (5):
Activity change, negative = inhibition, inactive:
O=C(NC(=S)Nc1ccc(S(=O)(=O)Nc2nccs2)cc1)c1ccc(F)cc1 1.35%
COc1ccc(NS(=O)(=O)c2cc(NC(=O)c3cnccn3)ccc2OC)cc1Br 8.71%
CCCCC(NS(=O)(=O)c1ccc(OC)cc1)C(=O)O (stereo not given) -1.29%
CNC(=O)Cn1nc(C)c(S(=O)(=O)N2CCOCC2)c1C 0.191%
CCN(CC(=O)NCc1cccs1)C(=O)c1cc(=O)[nH]c2ccccc12 -2.51%
